PubChem BioAssay AID1347076 (National Center for Advancing Translational Sciences (NCATS), 2019)
Screen size: about 400,000 compounds; about 13,000 (3.2%) were called active. The shares of active, inactive and inconclusive entries below differ from those in the screen. The call rests on the fitted dose curve; in most records, active means well fitted cell-killing curve with a large enough effect; inconclusive means small, poorly fitted or top-dose-only effect, or effect the other way; inactive means flat fitted curve, though single readings scatter. Potencies of inconclusive entries are doubtful fits and often do not repeat.

assay: qHTS assay for MDR1-selective chemotherapeutics: Primary screen using the drug-selected MDR subline cells KB-V1; details: KB-V1 MDR cells viability, CellTiter-Glo, 72 h; activity change, negative = cytotoxicity: at 46.1 µM (top of the series); further: nearly all actives have a fitted effect of over 60% in size
Method in brief: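 Compound-treated KB-V1 multidrug-resistant cells, 72 h, 37 degrees C; viability by CellTiter-Glo. Fitted qHTS curves give the values.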
On the % scale 0 is the no-effect control and ±100 the full control effect; potency means the concentration at half of the fitted maximal effect.

Structure (SMILES)	Potency	activity change, negative = cytotoxicity
CC(=O)Nc1ccc(/C=C(\C#N)S(=O)(=O)c2ccc(C)cc2)cc1	inconclusive: 1.46 µM [rising, full curve]	–
CC(OCCN1CCCC1)(c1ccc(F)cc1)c1ccc(F)cc1	–	inactive: -11.4%
COc1cccc(NC(=O)C2(C)CCN2Cc2ccc(-c3ccccc3)o2)c1 (centres undefined)	inconclusive: 10.3 µM [cytotoxic, partial curve, poor fit]	–
Cc1ccc(N2CCN(S(=O)(=O)c3ccc(Cl)s3)CC2C)cc1 (centres undefined)	inconclusive: 23.1 µM [cytotoxic, single point]	–
CC1CCN(CCCCOc2ccc(C(C)(C)C)cc2)CC1	–	inactive: 12.9%
CCCCOc1ccccc1C1C(C(=O)OC)=C(C)N(C)C(C)=C1C(=O)OC	active: 9.2 µM	–
CCN1C(=O)Nc2cccc3cccc1c23	inconclusive: 0.206 µM [cytotoxic, full curve, poor fit]	–
Cc1ccc(NC(=O)COc2coc(CN3CCc4ccccc43)cc2=O)c(C)c1	inconclusive: 29.1 µM [cytotoxic, single point]	–
CCOC(=O)/C(=C\C=C1/Sc2cc(OCC)c(OCC)cc2N1CC)C(C)=O	inconclusive: 25.9 µM [cytotoxic, single point]	–
CC(O)(CS(=O)(=O)Cc1ccc(Cl)cc1)C(=O)Nc1cccc(C(F)(F)F)c1 (centres undefined)	–	inactive: -8.53%
Cc1cc(=O)[nH]c(N/N=C/c2cc(C)n(CC(F)(F)F)c2C)n1	inconclusive: 14.6 µM [cytotoxic, partial curve]	–
COc1cc2c(cc1OC)C(COc1ccc3c(C)cc(=O)oc3c1)N(C(=O)c1ccccc1F)CC2 (centres undefined)	inconclusive: 16.4 µM [cytotoxic, single point]	–
CC(=O)Nc1ccc(CN2CCc3c([nH]c4ccccc34)C2c2ccccn2)cc1 (centres undefined)	inconclusive: 18.4 µM [cytotoxic, partial curve]	–
C/C(=N\O)c1ccc(Cl)c(Cl)c1	inconclusive: 18.4 µM [cytotoxic, single point]	–
Cc1cc(C)c(S(=O)(=O)Nc2ccccc2C(=O)N2CCCC2)c(C)c1	inconclusive: 14.6 µM [cytotoxic, partial curve]	–
COc1ccccc1NC(=S)N(Cc1ccco1)Cc1cc2cc(C)cc(C)c2[nH]c1=O	active: 2.91 µM	–
Fc1ccc(NC(=S)NC2CCCCC2)c(F)c1F	inconclusive: 8.2 µM [cytotoxic, partial curve]	–
CN(Cc1cc2ccccc2[nH]c1=O)C(=O)COc1ccccc1	inconclusive: 4.11 µM [rising, full curve]	–
O=C(NC(Cc1c[nH]c2ccccc12)C(=O)N/N=C/c1ccc(Cl)cc1)c1cccs1 (centres undefined)	–	inactive: -25.9%

Reformatted: entries from further up.

| Structure (SMILES) | Potency | activity change, negative = cytotoxicity |
| --- | --- | --- |
| CC(=O)Nc1ccc(/C=C(\C#N)S(=O)(=O)c2ccc(C)cc2)cc1 | inconclusive: 1.46 µM [rising, full curve] | – |
| Cc1ccc(N2CCN(S(=O)(=O)c3ccc(Cl)s3)CC2C)cc1 (centres undefined) | inconclusive: 23.1 µM [cytotoxic, single point] | – |
